Literature values, collected in US20240189279A1, “IMMUNOMODULATORY COMPOSITIONS AND METHODS OF USE THEREOF” (THE TEXAS A&M UNIVERSITY SYSTEM, priority 2022, published 2024).
For at least one compound, name, drawing or mass did not settle the structure.

System: COVID-19 patients
Settings: sick patients on respiratory support; cited from earlier work

C[C@@H]1C[C@H]2[C@@H]3CCC4=CC(=O)C=C[C@]4(C)[C@@]3(F)[C@@H](O)C[C@]2(C)[C@@]1(O)C(=O)CO [dexamethasone]
mortality rate: reduction in the mortality rate
